In the supplement of paper PMC4604168 (melanoma cell lines):
The list shows a part of the results. Many values rest on one well or one pass, so single values are uncertain.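 Imaging used 1,536-well plates; nuclei positive for cleaved PARP by antibody were divided by total DNA-stained nuclei to yield the apoptosis fraction. Doses for screening kept most cells viable, and cell lines differ markedly in resting and induced cleaved-PARP levels.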

tested on: IST-MEL1; experiment: cleaved PARP positive nuclei fraction relative to DMSO control; melanoma cells; higher = more apoptosis; conditions: library dose: low library concentration; 72 h

| SMILES | cleaved PARP positive nuclei fraction [%] |
| --- | --- |
| CS(=O)(=O)c1ccc(C(=O)Nc2ccc(Cl)c(-c3ccccn3)c2)c(Cl)c1 [vismodegib] + OCc1c[nH]c2ccccc12 [Indole-3-carbinol] (first compound 1 µM, partner dose 0.8 µM) | 64.6 |
| COc1ccc(C2=N[C@@H](c3ccc(Cl)cc3)[C@@H](c3ccc(Cl)cc3)N2C(=O)N2CCNC(=O)C2)c(OC(C)C)c1 [Nutlin-3] + NC1(c2ccc(-c3nc4ccn5c(=O)[nH]nc5c4cc3-c3ccccc3)cc2)CCC1 [MK2206] (first compound 0.1 µM, partner dose 0.4 µM) | 66.9 |
| COc1ccc(C2=N[C@@H](c3ccc(Cl)cc3)[C@@H](c3ccc(Cl)cc3)N2C(=O)N2CCNC(=O)C2)c(OC(C)C)c1 [Nutlin-3] + Clc1ccc(Nc2nnc(Cc3ccncc3)c3ccccc23)cc1 [vatalanib] (first compound 0.1 µM, partner dose 2 µM) | 23.7 |
| Cn1sc(=O)n(Cc2ccccc2)c1=O + CN(c1ncccc1CNc1nc(Nc2ccc3c(c2)CC(=O)N3)ncc1C(F)(F)F)S(C)(=O)=O [PF562271] (first compound 0.4 µM, partner dose 0.08 µM) | 29.7 |
| Cn1cnc2c(F)c(Nc3ccc(Br)cc3Cl)c(C(=O)NOCCO)cc21 [selumetinib] + CNC(=O)c1cc(Oc2ccc(NC(=O)Nc3ccc(Cl)c(C(F)(F)F)c3)cc2)ccn1 [sorafenib] (first compound 0.015 µM, partner dose 0.4 µM) | 96.4 |
